Test results reported in paper PMC7862700.
The list shows a part of the results. Construct or isoform of the protein are uncertain.

The sequences below were run against T1, ELF2 (UniProt Q15723) (assay: DAPPL (digital affinity profiling via proximity ligation, sequencing)). Conditions: 10 mM Tris-HCl pH 7.5, 50 mM NaCl, 1 mM DTT, 4% glycerol, room temperature, 30 min; GST-TFs on glutathione beads, 16-mer random dsDNA library, 0.1% …; high values mean tight binding; double strand, one strand shown; scale: fold enrichment (6-mer frequency, TF over GST control).
T1 sequence: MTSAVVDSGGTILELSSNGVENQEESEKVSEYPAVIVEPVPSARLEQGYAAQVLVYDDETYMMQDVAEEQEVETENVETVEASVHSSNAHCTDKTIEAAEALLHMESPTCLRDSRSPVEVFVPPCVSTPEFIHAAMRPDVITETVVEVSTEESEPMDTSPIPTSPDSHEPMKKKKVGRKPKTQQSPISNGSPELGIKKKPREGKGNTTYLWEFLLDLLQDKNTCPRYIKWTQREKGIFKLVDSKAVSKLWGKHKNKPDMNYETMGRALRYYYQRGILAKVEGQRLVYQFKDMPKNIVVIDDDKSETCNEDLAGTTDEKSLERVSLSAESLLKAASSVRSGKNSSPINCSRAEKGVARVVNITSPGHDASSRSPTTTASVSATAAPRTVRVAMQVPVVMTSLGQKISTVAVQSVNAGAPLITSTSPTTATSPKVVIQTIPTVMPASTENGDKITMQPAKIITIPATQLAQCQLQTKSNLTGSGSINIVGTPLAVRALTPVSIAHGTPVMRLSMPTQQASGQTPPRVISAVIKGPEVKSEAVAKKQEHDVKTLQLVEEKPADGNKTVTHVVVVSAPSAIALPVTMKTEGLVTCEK

Row | Sequence | binding signal
1 | TGACGA | 1.03
2 | TTATAC | 1.36
3 | TATTCG | 1.13
4 | ATGTTC | 1.23
5 | AATGCC | 1.09
6 | TTACAA | 1.11
7 | GACCTA | 1.1
8 | TTTTGA | 1.09
9 | ATCCCC | 1.34
10 | TCCATC | 1.11
11 | GCGACT | 1.16
12 | ATGACG | 1.27
13 | AACGCT | 1.2
14 | AAACCC | 1.34
15 | GGGCCT | 1.19
16 | TTAAGC | 1.11
17 | TAACAT | 1.29
18 | TGCTCT | 1.24
19 | TTTTAA | 1.22
20 | CTCTTC | 2.1

Row | Sequence | binding signal
21 | CGCTCC | 1.27
22 | TTAGAA | 1.04
23 | AGAATT | 1.15
24 | TATTCA | 1.23
25 | ATACCC | 1.19
26 | TTGTCT | 1.2
27 | ATGGCC | 1.28
28 | ATACTA | 1.11
29 | TACTTT | 1.34
30 | TACATT | 1.18
31 | TCTAGT | 1.08
32 | ATCTAA | 1.1
33 | ACCCGC | 1.21
34 | ATCGCC | 1.22
35 | GTCCTA | 1.14
36 | TTTACT | 1.52
37 | CACGCT | 1.32
38 | TATCCG | 3.28
39 | TCTGCA | 1.25

Some values from the results shown:
For binding signal, TCTGCA reads 1.25
For binding signal, TTAGAA reads 1.04
